For 1 molecule, binding results are on record in patent US20030148381A1.

This test has as its target his-tagged myosin VIIa C-terminal tail fragment (C-terminal MyTH4+FERM repeat) (zebrafish). Nature of the test: in vitro binding with constructs expressing harmonin PDZ domains.

Results are given in words; binding and its absence hold for the method and conditions named.

B1: harmonin PDZ2 domain (amino acids 189-307) (protein, mouse, UniProt Q9ES64 189-307, looked up, not shown: a dimerising Fc or GST)
chain: VSESGGVRGGLGSPGNRTTKEKKVFISLVGSRGLGCSISSGPIQKPGIFVSHVKPGSLSAEVGLETGDQIVEVNGIDFTNLDHKEAVNVLKSSRSLTISIVAGAGRELFMTDRERLEEA
In the case of B1, the binding result was “no binding”.
